Mtb heat-shock: 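Assay on Mycobacterium tuberculosis, filed only as a heat shock assay from Cornell; the read-out is not stated. The concentration is filed as 10 mM, unlikely as a test dose, so the dose is not known. The record gives no direction; compounds that gave an IC50 in retests scored well above the rest, so higher reads as stronger inhibition. Of about 69,000 compounds tested this way, about 930 (1.4%) reached 50% or more in at least one test.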
LdMetRS: 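Primary screen of methionyl-tRNA synthetase; the read-out is not stated. Target: Methionyl-tRNA synthetase (putative), Leishmania donovani (UniProt E9BF75). The test concentration is not given. The values are filed as inhibition. Of about 68,000 compounds tested this way, about 24 (0.035%) reached 50% or more in at least one test.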

Sequences of proteins named here, by UniProt entry; tags and fusion partners are left off.
UniProt E9BF75, entry or part of it: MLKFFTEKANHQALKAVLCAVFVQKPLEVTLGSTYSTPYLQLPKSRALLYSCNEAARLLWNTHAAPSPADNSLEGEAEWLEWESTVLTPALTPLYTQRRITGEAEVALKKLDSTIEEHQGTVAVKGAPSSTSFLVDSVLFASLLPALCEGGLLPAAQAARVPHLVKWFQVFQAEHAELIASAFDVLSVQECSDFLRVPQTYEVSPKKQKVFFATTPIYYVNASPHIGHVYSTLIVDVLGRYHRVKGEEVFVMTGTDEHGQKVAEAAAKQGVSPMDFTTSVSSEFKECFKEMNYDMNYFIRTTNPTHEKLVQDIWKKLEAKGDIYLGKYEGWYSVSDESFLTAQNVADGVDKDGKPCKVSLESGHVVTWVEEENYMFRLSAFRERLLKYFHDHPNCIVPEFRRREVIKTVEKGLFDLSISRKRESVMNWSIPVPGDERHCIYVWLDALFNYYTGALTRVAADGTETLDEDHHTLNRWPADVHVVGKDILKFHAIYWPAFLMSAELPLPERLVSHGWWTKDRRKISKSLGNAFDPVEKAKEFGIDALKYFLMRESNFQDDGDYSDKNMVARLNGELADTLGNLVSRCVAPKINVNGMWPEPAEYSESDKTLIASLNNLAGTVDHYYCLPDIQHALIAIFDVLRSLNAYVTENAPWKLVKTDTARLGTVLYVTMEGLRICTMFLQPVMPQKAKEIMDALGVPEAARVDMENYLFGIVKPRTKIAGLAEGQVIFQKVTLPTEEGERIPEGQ

Results are percentages, as filed.
The record does not define 0% and 100%; most values in the screen are far below 50% and negative numbers occur (in some assays of this library far below -100).
This is an unselected part of the compounds tested.
A dash means the value is not listed here; it may have been measured.

| structure | Mtb heat-shock | LdMetRS |
|---|---|---|
| `COc1ccc(-c2cccc(-c3ccn(CCN(C)C)n3)c2)nn1` | 33.81 | -2.01 |
| `O=C(c1cc(C2CC2)on1)N1CCC(Oc2ncccc2Br)CC1` | -2.845 | 6.475 |
| `O=C(O)C(F)(F)F.O=C(O)C(F)(F)F.[H][C@@]12CCCO[C@]1([H])[C@@H](Oc1ncccc1F)CN2Cc1ccoc1` | -22.49 | - |
| `CCN(C)S(=O)(=O)NCC(C)(O)c1ccsc1` (configuration not stated) | 13.74 | 0 |
| `CCCC(C)(O)c1cc(C(N)=O)no1` (configuration not stated) | 5.156 | 10.79 |
| `Cc1cccc(-c2nnn3c2COC(CNS(=O)(=O)C2CC2)C3)c1` (configuration not stated) | 1.488 | 14.57 |
| `COCCN1CCc2c(CNC(=O)c3nccn3C)cncc2C1` | - | 2.241 |
| `CCN(Cc1noc(C2CC2)n1)C(=O)c1onc2ccccc12` | -5.814 | 11.53 |
| `Cc1nn(C)c(C)c1CNCc1ccnc(N2CCOCC2)c1` | -1.498 | 4.167 |
| `COCC1CC2(CCN(C(=O)c3cnc4ccccc4c3)CC2)CO1.O=C(O)C(F)(F)F` (configuration not stated) | -32.59 | - |
| `Cc1ccc(-c2csc3c(=O)[nH]c(N4CCCC(C(=O)O)C4)nc23)cc1` (configuration not stated) | 21.86 | 5.755 |
| `Cc1cc(N2CCC(Cc3ccccc3)CC2)ncn1` | 4.23 | -4.348 |
| `CC(NC1(CNC(=O)Cn2cccn2)CCOCC1)c1ccccc1` (configuration not stated) | -2.316 | 12.27 |
| `COc1cccc(-c2noc(C3CCN(Cc4ccccc4C)C3)n2)c1.Cl` (configuration not stated) | -27.32 | - |
| `CCC1CN(Cc2nc(C(C)C)no2)CCC(=O)N1Cc1ccccc1` (configuration not stated) | -30.16 | 9.441 |
| `CCc1noc(CN2CCCN(Cc3cccs3)CC2)n1` | 7.66 | 11.36 |
| `CC(=O)N1CCC12CCN(Cc1ccco1)CC2` | - | -4.482 |
| `Cc1nc(C2CCN(C(=O)COC(C)C)CC2)cc(N2CCOCC2)n1` | 20.57 | 8.242 |
| `CSCc1ccc(CNCCN2CCOCC2)o1` | -28.62 | 13.17 |
| `O=C(O)C(F)(F)F.O=C(O)C(F)(F)F.[H][C@@]12CN(Cc3ccoc3)C[C@]1([H])C(=O)N(CCN1CCCC1)C2` | -10.49 | - |
| `CCN(Cc1noc(CC(C)C)n1)Cc1ccccc1C` | -13.65 | 10 |
| `NC(=O)CCSCc1ccc(Br)c(F)c1` | -5.844 | 10.76 |
| `c1cc(CN2CCC(CCn3cccn3)CC2)cc(Cn2cccn2)c1` | -16.62 | 19.4 |
| `COc1ccc(OC)c(CN2CCc3nc4ccsc4c(=O)n3CC2)c1.Cl` | -10.43 | - |
| `CC(=O)N1N=C(c2ccccc2)OC1C(=O)N(C)CCc1ccccc1` (configuration not stated) | 0.1011 | 8.056 |
| `O=C(O)C(F)(F)F.[H][C@@]12CCCO[C@]1([H])[C@H](NC(=O)c1cnoc1C)CN(Cc1ccoc1)C2` | 44.61 | - |
| `CC(C)C(=O)NS(=O)(=O)c1ccc2c(c1)N(C)CCC2` | 13.41 | 5.645 |
| `Cc1cccc(CNC2CCCc3c2cnn3C)c1.Cl` (configuration not stated) | -0.3532 | - |
| `O=C(O)C(F)(F)F.O=C(O)C(F)(F)F.c1csc(CN2CCCn3cnc(CN4CCCC4)c3C2)c1` | -4.842 | - |
| `CCn1[nH]c(C)c2c(C(F)(F)C(F)(F)F)cc(=O)nc1-2` | 3.674 | 17.29 |
| `CN(C)C(=O)COC[C@]12COC[C@H]1CN(CCc1ccccc1)C2` | - | 11.17 |
| `Cc1n[nH]c(C)c1-c1c(C#N)c(N)nc2c1CCc1[nH]ccc1-2` | 4.588 | 24.04 |
| `CCN(CC)C(CNS(=O)(=O)NCc1ccccc1)c1ccco1` (configuration not stated) | 10.11 | 14.24 |
| `CC(C)(C)Cc1nnc(NCc2ccsc2)o1` | 25.91 | 20.07 |
| `CCC(C)NC(=O)Cn1c(Nc2cc(C)cc(C)c2)nc(C)cc1=O` (configuration not stated) | 104.5 | 14.91 |
| `CCCn1ncnc1C(C)NC(=O)C1CCN(C(=O)C2CC2)CC1` (configuration not stated) | -8.05 | 11.34 |
| `CC(C)(C)NC(=O)CN1CCCN(c2ccc(C#N)cn2)CC1` | 33.33 | 7.711 |
| `CC1=C(C(=O)N(C)Cc2noc3c2CCCC3)C(C)NC(=O)N1` (configuration not stated) | 12.42 | 12.32 |
| `Cc1nc2cc(O)nn2c(C)c1CCC(=O)NCc1cc(Br)cs1` | -12.38 | 21.94 |
| `O=C(CN1CCS(=O)(=O)CC1)NC1CCCc2ccccc21` (configuration not stated) | 14 | 14.24 |
| `Cc1cc(CN2CC[C@H]3[C@H]2CCN3S(C)(=O)=O)oc1C` | - | 11.11 |
| `O=C(N1CCCC1)N1CCC[C@]2(C[C@@H](OCc3ccncc3)CO2)C1.O=C(O)C(F)(F)F` | -15.48 | - |
| `CS(=O)(=O)N1CCC(Oc2ccc(C#N)cc2)CC1` | -19.71 | 0.7444 |
| `CN1CCC2(COCCN(Cc3ccc4c(c3)OCO4)C2)C1` (configuration not stated) | - | 10.47 |
| `Cc1nnc(CN(Cc2ccc3c(c2)OCO3)C2CCC(C)CC2)o1` (configuration not stated) | -16.46 | 21.67 |
| `CC(C)Nc1ncnc2c1CCN(C(=O)c1ccncc1F)CC2.O=C(O)C(F)(F)F` | -2.121 | - |
| `Cc1nnc2n1CCN(CCS(=O)(=O)c1ccccc1)C2` | 16.53 | 16.6 |
| `CCCc1ccc(C(=O)N2CCn3c(nnc3C(C)C)C2)cc1` | -3.085 | 7.904 |
| `O=C(NCCn1ccnc1)c1cccc(F)c1` | -9.802 | 8.661 |
| `NCc1n[nH]c(=O)n1-c1ccccc1Oc1ccccc1` | -24.6 | 8.935 |
| `COCCCNc1nccc(-c2c[nH][nH]c2=O)n1` | -19.59 | 1.399 |
| `CC(=O)N1CCCC(C(=O)N2CCN(c3cnn(C)c(=O)c3)CC2)C1` (configuration not stated) | -23.04 | 7.013 |
| `Cn1ccnc1CN1CCOC(C)(C(=O)N2CCOCC2)C1` (configuration not stated) | -3.345 | 11.86 |
| `CCc1ccc(S(=O)(=O)Nc2ccc(F)cc2C(=O)O)s1` | 34.3 | -2.222 |
| `O=C(O)C(F)(F)F.[H][C@]12CCN(C(=O)c3ccncc3F)[C@@]1([H])CC[C@@H](COC)O2` | -0.1792 | - |

6 of the entries, repeated:

{"structure": "CCC1CN(Cc2nc(C(C)C)no2)CCC(=O)N1Cc1ccccc1", "stereo": "configuration not stated", "Mtb heat-shock": -30.16, "LdMetRS": 9.441}
{"structure": "Cc1cccc(-c2nnn3c2COC(CNS(=O)(=O)C2CC2)C3)c1", "stereo": "configuration not stated", "Mtb heat-shock": 1.488, "LdMetRS": 14.57}
{"structure": "CCn1[nH]c(C)c2c(C(F)(F)C(F)(F)F)cc(=O)nc1-2", "Mtb heat-shock": 3.674, "LdMetRS": 17.29}
{"structure": "CSCc1ccc(CNCCN2CCOCC2)o1", "Mtb heat-shock": -28.62, "LdMetRS": 13.17}
{"structure": "O=C(NCCn1ccnc1)c1cccc(F)c1", "Mtb heat-shock": -9.802, "LdMetRS": 8.661}
{"structure": "CC(NC1(CNC(=O)Cn2cccn2)CCOCC1)c1ccccc1", "stereo": "configuration not stated", "Mtb heat-shock": -2.316, "LdMetRS": 12.27}

From ChEMBL document CHEMBL3988442, “University of Dundee, Small-Polar-MMV Screening Library” (2021).